Results published in paper PMC10514286.
No constants are given. Whether binding was seen depends on the method and setting. In cells and extracts the contact can be indirect. Some binding calls cover weakened binding; strength is not graded here.

Biological target: T1, caveolin-1 (mouse (endogenous in MLECs)) (UniProt P49817)
T1 sequence: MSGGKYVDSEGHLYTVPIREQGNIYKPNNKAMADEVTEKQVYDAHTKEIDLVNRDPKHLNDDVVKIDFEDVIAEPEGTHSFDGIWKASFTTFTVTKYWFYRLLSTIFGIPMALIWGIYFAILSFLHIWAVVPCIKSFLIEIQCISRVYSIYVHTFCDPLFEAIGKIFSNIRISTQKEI
Experiment: co-IP; eNOS immunoprecipitated with anti-caveolin-1 antibody from MLEC lysate (Pierce IP Lysis Buffer, Protein A&G magnetic beads, 4 °C), Western blot; MLECs from CTR and dKO mice, from vehicle- or MITA-treated mice, with Ad-LacZ or CA-AMPK, with vehicle or captopril

B1: endothelial nitric oxide synthase (enzyme, UniProt P70313 1-1202)
chain: MGNLKSVGQEPGPPCGLGLGLGLGLCGKQGPASPAPEPSQAPAPPSPTRPAPDHSPPLTRPPDGPRFPRVKNWEVGSITYDTLSAQAQQDGPCTSRRCLGSLVFPRKLQSRPTQGPSPTEQLLGQARDFINQYYNSIKRSGSQAHEQRLQEVEAEVAATGTYQLRESELVFGAKQAWRNAPRCVGRIQWGKLQVFDARDCRTAQEMFTYICNHIKYATNRGNLRSAITVFPQRCPGRGDFRIWNSQLIRYAGYRQQDGSVRGDPANVEITELCIQHGWTPGNGRFDVLPLLLQAPDEPPELFTLPPEMVLEVPLEHPTLEWFAALGLRWYALPAVSNMLLEIGGLEFPAAPFSGWYMSSEIGMRDLCDPHRYNILEDVAVCMDLDTRTTSSLWKDKAAVEINVAVLHSYQLAKVTIVDHHAATASFMKHLENEQKARGGCPADWAWIVPPISGSLTPVFHQEMVNYFLSPAFRYQPDPWKGSAAKGAGITRKKTFKEVANAVKISASLMGTVMAKRVKATILYGSETGRAQSYAQQLGRLFRKAFDPRVLCMDEYDVVSLEHEALVLVVTSTFGNGDPPENGESFAAALMEMSGPYNSSPRPEQHKSYKIRFNSVSCSDPLVSSWRRKRKESSNTDSAGALGTLRFCVFGLGSRAYPHFCAFARAVDTRLEELGGERLLQLGQGDELCGQEEAFRGWAQAAFQAACETFCVGEDAKAAARDIFSPKRSWKRQRYRLSTQAESLQLLPGLTHVHRRKMFQATILSVENLQSSKSTRATILVRLDTGGQEGLQYQPGDHIGVCPPNRPGLVEALLSRVEDPPPSTEPVAVEQLEKGSPGGPPPGWVRDPRLPPCTLRQALTYFLDITSPPSPRLLRLLSTLAEESSEQQELEALSQDPRRYEEWKWFSCPTLLEVLEQFPSVALPAPLILTQLPLLQPRYYSVSSAPSAHPGEIHLTIAVLAYRTQDGLGPLHYGVCSTWMSQLKAGDPVPCFIRGAPSFRLPPDPNLPCILVGPGTGIAPFRGFWQDRLHDIEIKGLQPAPMTLVFGCRCSQLDHLYRDEVLDAQQRGVFGQVLTAFSRDPGSPKTYVQDLLRTELAAEVHRVLCLEQGHMFVCGDVTMATSVLQTVQRILATEGGMELDEAGDVIGVLRDQQRYHEDIFGLTLRTQEVTSRIRTQSFSLQERQLRGAVPWSFDPPGPEIPGS
binding: binds
